According to PubChem BioAssay AID687031 (Broad Institute, 2013):
Out of some 1,400 compounds screened, about 50 (4%) were called active.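 How the source made its calls: active means fitted curve reaches 30% CPE protection at or below the top valid dose, with every test run called active; inconclusive means test runs disagree, some active and some not; inactive means every test run inactive, including effects in the wrong direction.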 The list shows a part of the results. Potency and affinity values are given separately.

experiment: Dengue virus 2 cytopathic effect protection, dose response, BHK-21 cells, ATP luminescence, cherry-pick (AID 687031); details: BHK-21 DENV2 CPE protection, 5 d; at 19.5 µM (top of the series) unless noted;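 further: 0% = infected DMSO wells and 100% = uninfected cell wells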

CPE protection (higher = active), inactive:
CCn1cc(C(=O)O)c(=O)c2cc(F)c(N3CCN(C)CC3)cc21 -4.33%, O=C(Cn1cnc2c(NCc3ccccc3)ncnc21)NCC1CCCO1 (centres undefined) -10.2%, COc1ccccc1OCC(=O)Nc1ccc(N2CCOCC2)cc1N1CCOCC1 -5.59%, CN1CCN(C(=O)C[C@@H]2CC[C@@H]3[C@H](COC[C@@H](O)CN3Cc3ccc4c(c3)OCO4)O2)CC1 -21.5%, O=C(COc1ccc2c(-c3ccccc3)cc(=O)oc2c1)NC1CCS(=O)(=O)C1 (centres undefined) 9.47%, CN1C(=O)c2cc(NC(=O)C3CCCC3)ccc2OC[C@H]2O[C@H](CC(=O)NCCc3ccncc3)CC[C@H]21 2.49%, CCC(=O)N1CC[C@@H]2[C@@H](CO)Nc3ccc(-c4ccc(OC)cc4)cc3[C@@H]21 -14%, CC(C)N(Cc1ccccc1)C(=O)COC(=O)c1cnc(Cl)c(Cl)c1 -6.48%, CCCNC(=O)OC1CC2CC1[C@H]1CCCCN1C2=O (some centres undefined) -7.24%, CCN(CC)S(=O)(=O)c1cccc(C(=O)NCC2(N3CCOCC3)CCCCC2)c1 -4.55%, CC1CCC(CN2C(Nc3ccccc3)=NC[C@@H]2C)CC1 (some centres undefined) -6.41%, N#C[C@@H]1[C@H](c2ccc(C#Cc3ccccc3F)cc2)[C@@H](CO)N1C(=O)C1CC1 -25.3%, CCOC(=O)CC[C@H](NC(=O)Cn1cnc2c(OCc3ccccc3)ncnc21)C(=O)OCC -6.24%, CC1(C)CC(=O)N(CC(=O)O)c2ccccc2S1(=O)=O -20.4%, O=C(O)c1cccc(-c2csc(C(O)c3ccc(F)c(F)c3)n2)c1 (centres undefined) -18.7%, CCN(CC)C1CCN(Cc2c(C(=O)N3CCCCCCC3)nc3ccc(Cl)cn23)C1 (centres undefined) -11.9%, CCOC(=O)c1[nH]c2ccccc2c1NC(=O)c1ccc2c(c1)OCO2 0.203%, CC(C)CCC(O)(c1ccccc1)C(CN1CCOCC1)c1ccccc1 (centres undefined) -20.9%, Nc1c(-c2ccccc2)nc2ncccn12 8.46%, O=C(NCc1ccc2c(c1)OCO2)C(=O)NCC1OCCCN1S(=O)(=O)c1ccccc1 (centres undefined) -15.4%, Cc1noc(C)c1NC(=O)Nc1ccc2c(c1)C(=O)N([C@@H](C)CO)C[C@@H](C)[C@@H](CN(C)Cc1ccccc1)OCCCC[C@@H](C)O2 18.2%, C[C@@H]1CN([C@H](C)CO)C(=O)c2cc(N(C)C)ccc2O[C@@H](C)CCCCO[C@@H]1CN(C)C(=O)CCC(F)(F)F 6.42%, CCCCN(C(=O)c1ccc2c(c1)NC(=O)CS2)c1ccccc1 -8.68%, c1ccc(-c2cc3ccccc3[nH]2)cc1 -9.13%, Cc1c(C(=O)NCc2ccc(C#N)cc2)sc(=O)n1Cc1ccccn1 0.599%, COC(=O)C[C@@H]1CC[C@H]2[C@@H](COc3ccc(NC(=O)c4ccc(C(F)(F)F)cc4)cc3C(=O)N2C)O1 -7.01%, CCN(CC)c1ccc2cc(C(=O)NCc3ccc(F)cc3)c(=N)oc2c1 2.36%, CC(C)(CN1CCN(Cc2ccccc2)CC1)NS(=O)(=O)c1ccc(Cl)cc1 -31.2%, COc1ccc2ccccc2c1-c1sc(Nc2ccccc2)n[n+]1-c1ccc(F)cc1 -20%, CSCCC(NC(=O)COc1ccccc1)C(=O)OCCOc1ccc(C)cc1 (centres undefined) 16.7%, CCCCCCCCN1C(=O)[C@H](CC(=O)NCCC(C)C)C[C@@]2(C(=O)OCC)CCCC=C12 -35.5%, Cc1nc(CCNC(=O)CC2C(=O)NCCN2CC(C)C)nc2c1CCC2 (centres undefined) 3.16%, Cc1cccc(OCC(=O)Nc2ccc(N3CCN(C(=O)c4ccccc4)CC3)cc2)c1C -2.19%, COc1ccc(-c2oc3ccc(-c4cc(OC)c(OC)c(OC)c4)cc3c2-c2ccc(OC)nc2)cc1 -12.2%, c1ccc(-c2cn(C[C@H]3CC[C@@H]([C@@H]4CC[C@H](Cn5cc(-c6ccccc6)nn5)O4)O3)nn2)cc1 -14.3%, CC(CNC(=O)Cn1ccc(NC(=O)OCc2ccccc2)nc1=O)c1ccccc1 (centres undefined) -2.22%, O=C(c1cc(-c2cccs2)on1)N1CCCc2ccccc21 26.9%, COc1ccc(C#Cc2ccc([C@H]3[C@@H](CO)N4CCCCN(S(=O)(=O)c5ccccc5)C[C@@H]34)cc2)cc1 -2.09%, C[C@@H]1CN([C@@H](C)CO)C(=O)Cc2cc(NS(=O)(=O)c3cn(C)cn3)ccc2O[C@H]1CN(C)Cc1ccc(C(=O)Nc2ccccc2N)cc1 2.37%, CN(C)C(=O)c1cccc(-c2ccc3c(c2)[C@@H]2[C@@H](CCN2C(=O)Cc2ccncc2)[C@@H](CO)N3)c1 -30.7%, O=C1Nc2ccccc2SC1c1ccccc1 (centres undefined) 22.8%, CC1(C)CC(NC(=O)COc2ccccc2Cl)CC(C)(C)N1 17.7%, COc1ccc(C)cc1N(CC(=O)Nc1ccc(S(=O)(=O)N2CCOCC2)cc1)S(C)(=O)=O -13.8%, COc1ccc(S(=O)(=O)Nc2ccc3c(c2)C(=O)N([C@@H](C)CO)C[C@H](C)[C@H](CN(C)C(=O)Nc2ccc(C(F)(F)F)cc2)OCCCC[C@H](C)O3)cc1 -7.43%, O=C(N[C@@H]1CC[C@H](CCNC(=O)C2CCCCC2)O[C@@H]1CO)c1ccccn1 -27.2%, CCOC(=O)C1(Cc2ccccc2C)CCCN(C(=O)CCc2c(C)noc2C)C1 (centres undefined) 12.5%, Cc1c(C(=O)NCCCN2CCOCC2)sc2nc(-c3ccccc3)cn12 21.8%, COC(=O)C1=C(C)N(Cc2cccc(C(F)(F)F)c2)C(=NCC2CC2)NC1c1ccc(F)cc1 (centres undefined) 1.54%, C[C@@H]1CCCCO[C@@H](CN(C)Cc2ccc3c(c2)OCO3)[C@H](C)CN([C@@H](C)CO)C(=O)c2cc(NS(=O)(=O)c3cccs3)ccc2O1 21.8% [at 21 µM]
